Laboratory results as given in PMC6917717.
No constants are given. Whether binding was seen depends on the method and setting. Some entries that bind do so weakly or less than the wild type.

Target: YtfK (bacterial two-hybrid fusion) (E. coli) (UniProt P0ADE2)
Assay: two-hybrid; bacterial two-hybrid (T18 and T25 fragments of B. pertussis adenylate cyclase, pUT18c and pKT25) in cya-deficient E. coli BTH101, 30 °C; X-Gal plates with IPTG and β-galactosidase assay

- binding: binds
Substance: SpoT (bacterial two-hybrid fusion) (from UniProt P0AG24 1-702)
